Data on one sequence can be found in patent US6361968.

Amino acid sequences for entries named in this document (tags omitted). Residues count along the entry.
UniProt P05554, 272-358, stated change not applied: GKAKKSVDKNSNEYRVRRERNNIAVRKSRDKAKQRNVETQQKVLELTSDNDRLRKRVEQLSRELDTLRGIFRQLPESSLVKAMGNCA

Construct, isoform or probe ends are uncertain for at least one entry.

This series addresses C/EBP bZIP domain (sequence printed as SEQ 43, described there as GCN4-C/EBP chimera) (UniProt P05554). Nature of the series: EMSA. Conditions: CITED Cao et al. 1991 for Kd; binding shown in own gel shift (FIG. 14A), abolished by equimolar 3heptad-F; gel shift probe only described as 28 bp consensus; purified recombinant protein. (In general: Mobility shift assays separate free from complexed probe on a gel.)

As for “GTCAGTCAGATTGCGCAATATCGGTCAG (double strand) [28 bp C/EBP consensus gel shift probe]”, the Kd came out at 1 nM.

In general, Kd refers to the equilibrium constant for the complex coming apart.
